Results as given in PMC6399928.
Results are given in words; binding and its absence hold for the method and conditions named. In cells and extracts the contact can be indirect. Here binding means that the protein was enriched with, or labelled near, the bait; the list need not be complete.

Amino acid sequences for entries named in this document (tags omitted). Residues count along the entry.
UniProt P21333: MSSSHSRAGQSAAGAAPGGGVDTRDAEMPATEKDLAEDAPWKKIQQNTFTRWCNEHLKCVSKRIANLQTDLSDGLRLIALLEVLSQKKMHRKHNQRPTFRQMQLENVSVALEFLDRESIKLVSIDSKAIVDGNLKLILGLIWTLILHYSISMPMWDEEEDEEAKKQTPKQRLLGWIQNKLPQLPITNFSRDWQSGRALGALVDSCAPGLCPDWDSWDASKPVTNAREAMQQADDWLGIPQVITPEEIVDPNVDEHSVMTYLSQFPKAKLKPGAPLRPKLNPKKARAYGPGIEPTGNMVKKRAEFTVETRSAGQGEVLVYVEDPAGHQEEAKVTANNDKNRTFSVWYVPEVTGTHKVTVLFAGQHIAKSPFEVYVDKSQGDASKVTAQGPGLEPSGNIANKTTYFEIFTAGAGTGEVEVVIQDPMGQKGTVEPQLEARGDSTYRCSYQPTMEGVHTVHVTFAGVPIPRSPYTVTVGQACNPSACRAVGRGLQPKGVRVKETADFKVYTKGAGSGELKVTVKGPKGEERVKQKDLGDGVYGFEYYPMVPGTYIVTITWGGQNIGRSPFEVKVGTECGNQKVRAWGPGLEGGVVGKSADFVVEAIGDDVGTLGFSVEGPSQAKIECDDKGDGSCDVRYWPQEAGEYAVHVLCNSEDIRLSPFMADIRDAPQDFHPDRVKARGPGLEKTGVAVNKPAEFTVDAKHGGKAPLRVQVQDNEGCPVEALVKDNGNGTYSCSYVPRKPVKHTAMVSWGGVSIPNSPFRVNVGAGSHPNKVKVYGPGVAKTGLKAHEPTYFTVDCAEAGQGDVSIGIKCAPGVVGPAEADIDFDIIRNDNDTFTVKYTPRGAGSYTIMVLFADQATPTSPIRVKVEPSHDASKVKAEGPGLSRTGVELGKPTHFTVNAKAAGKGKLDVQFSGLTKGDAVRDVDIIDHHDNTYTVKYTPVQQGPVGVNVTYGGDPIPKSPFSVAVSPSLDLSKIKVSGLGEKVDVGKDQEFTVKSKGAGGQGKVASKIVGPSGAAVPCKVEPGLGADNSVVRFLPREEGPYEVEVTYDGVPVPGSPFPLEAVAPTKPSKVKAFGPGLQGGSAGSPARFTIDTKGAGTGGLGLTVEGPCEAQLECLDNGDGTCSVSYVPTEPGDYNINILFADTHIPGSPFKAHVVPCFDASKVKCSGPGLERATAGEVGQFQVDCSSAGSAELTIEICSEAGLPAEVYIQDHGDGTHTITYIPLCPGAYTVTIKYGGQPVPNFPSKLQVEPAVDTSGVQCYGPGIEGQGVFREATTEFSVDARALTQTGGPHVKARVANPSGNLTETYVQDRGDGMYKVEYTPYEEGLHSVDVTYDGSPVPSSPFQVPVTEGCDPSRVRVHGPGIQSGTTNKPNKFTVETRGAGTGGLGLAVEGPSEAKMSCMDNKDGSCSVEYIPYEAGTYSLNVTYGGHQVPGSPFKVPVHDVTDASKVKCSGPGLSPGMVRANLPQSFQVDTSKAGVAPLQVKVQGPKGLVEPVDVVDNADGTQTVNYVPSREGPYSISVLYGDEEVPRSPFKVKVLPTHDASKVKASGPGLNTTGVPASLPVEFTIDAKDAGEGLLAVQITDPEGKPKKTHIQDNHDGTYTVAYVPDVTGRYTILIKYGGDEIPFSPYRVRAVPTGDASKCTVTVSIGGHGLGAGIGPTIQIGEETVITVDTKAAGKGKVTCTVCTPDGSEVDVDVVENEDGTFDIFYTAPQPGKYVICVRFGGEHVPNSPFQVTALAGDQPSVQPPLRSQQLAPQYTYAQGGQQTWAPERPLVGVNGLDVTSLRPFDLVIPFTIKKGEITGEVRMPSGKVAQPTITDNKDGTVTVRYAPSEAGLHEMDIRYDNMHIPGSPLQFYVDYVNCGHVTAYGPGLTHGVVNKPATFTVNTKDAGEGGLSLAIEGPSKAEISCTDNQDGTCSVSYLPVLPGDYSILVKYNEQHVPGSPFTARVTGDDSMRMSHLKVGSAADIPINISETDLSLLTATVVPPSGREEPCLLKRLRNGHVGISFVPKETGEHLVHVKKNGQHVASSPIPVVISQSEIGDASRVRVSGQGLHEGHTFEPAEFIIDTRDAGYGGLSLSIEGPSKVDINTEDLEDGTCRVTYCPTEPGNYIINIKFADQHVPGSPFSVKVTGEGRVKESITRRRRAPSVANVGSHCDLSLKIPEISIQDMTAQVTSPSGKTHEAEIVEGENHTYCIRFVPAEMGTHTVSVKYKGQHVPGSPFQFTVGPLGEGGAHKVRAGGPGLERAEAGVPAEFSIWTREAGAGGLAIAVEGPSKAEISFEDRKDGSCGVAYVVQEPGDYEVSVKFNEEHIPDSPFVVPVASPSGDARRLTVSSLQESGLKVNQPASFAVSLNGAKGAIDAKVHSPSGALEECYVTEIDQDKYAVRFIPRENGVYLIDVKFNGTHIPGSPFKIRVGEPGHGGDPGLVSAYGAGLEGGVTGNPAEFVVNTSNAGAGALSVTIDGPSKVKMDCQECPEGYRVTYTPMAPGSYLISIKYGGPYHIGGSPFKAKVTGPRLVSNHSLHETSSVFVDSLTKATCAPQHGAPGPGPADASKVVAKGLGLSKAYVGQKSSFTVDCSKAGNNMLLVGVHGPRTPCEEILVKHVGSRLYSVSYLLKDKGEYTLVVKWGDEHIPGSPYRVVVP
UniProt P06396, residues 28-782: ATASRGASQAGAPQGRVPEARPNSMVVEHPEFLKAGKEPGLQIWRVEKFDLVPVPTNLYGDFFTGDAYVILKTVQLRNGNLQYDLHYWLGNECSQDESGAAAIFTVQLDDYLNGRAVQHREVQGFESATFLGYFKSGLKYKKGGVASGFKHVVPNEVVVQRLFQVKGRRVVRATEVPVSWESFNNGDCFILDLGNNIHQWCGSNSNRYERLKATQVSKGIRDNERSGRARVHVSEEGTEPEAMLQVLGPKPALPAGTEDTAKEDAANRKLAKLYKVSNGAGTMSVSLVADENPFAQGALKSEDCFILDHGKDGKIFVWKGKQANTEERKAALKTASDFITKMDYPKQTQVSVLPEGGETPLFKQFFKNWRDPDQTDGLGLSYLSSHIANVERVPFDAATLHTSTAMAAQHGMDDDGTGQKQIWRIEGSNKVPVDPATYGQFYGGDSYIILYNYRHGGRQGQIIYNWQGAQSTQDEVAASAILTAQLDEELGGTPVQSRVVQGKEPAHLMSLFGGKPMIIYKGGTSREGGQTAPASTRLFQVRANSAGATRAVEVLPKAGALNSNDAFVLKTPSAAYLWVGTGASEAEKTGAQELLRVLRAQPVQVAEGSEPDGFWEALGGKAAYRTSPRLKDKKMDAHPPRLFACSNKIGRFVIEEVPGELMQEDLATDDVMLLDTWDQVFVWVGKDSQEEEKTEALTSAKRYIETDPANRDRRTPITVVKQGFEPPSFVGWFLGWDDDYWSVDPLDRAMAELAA
UniProt Q14247: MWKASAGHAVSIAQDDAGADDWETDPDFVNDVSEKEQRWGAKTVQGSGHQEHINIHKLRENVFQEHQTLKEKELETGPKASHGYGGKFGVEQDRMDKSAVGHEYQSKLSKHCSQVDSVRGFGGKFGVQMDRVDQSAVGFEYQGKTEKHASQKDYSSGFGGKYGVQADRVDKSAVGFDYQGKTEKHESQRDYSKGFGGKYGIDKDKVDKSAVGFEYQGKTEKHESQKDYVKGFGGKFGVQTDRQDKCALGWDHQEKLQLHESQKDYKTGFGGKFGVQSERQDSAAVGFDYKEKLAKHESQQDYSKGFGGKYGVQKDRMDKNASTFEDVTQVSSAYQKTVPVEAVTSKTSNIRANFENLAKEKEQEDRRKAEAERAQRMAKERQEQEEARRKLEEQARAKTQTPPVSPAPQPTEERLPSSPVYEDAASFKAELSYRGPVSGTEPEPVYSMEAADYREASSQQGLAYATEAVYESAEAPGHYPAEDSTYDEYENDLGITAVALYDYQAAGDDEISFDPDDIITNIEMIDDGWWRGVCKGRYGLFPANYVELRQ
UniProt P16070, residues 21-742: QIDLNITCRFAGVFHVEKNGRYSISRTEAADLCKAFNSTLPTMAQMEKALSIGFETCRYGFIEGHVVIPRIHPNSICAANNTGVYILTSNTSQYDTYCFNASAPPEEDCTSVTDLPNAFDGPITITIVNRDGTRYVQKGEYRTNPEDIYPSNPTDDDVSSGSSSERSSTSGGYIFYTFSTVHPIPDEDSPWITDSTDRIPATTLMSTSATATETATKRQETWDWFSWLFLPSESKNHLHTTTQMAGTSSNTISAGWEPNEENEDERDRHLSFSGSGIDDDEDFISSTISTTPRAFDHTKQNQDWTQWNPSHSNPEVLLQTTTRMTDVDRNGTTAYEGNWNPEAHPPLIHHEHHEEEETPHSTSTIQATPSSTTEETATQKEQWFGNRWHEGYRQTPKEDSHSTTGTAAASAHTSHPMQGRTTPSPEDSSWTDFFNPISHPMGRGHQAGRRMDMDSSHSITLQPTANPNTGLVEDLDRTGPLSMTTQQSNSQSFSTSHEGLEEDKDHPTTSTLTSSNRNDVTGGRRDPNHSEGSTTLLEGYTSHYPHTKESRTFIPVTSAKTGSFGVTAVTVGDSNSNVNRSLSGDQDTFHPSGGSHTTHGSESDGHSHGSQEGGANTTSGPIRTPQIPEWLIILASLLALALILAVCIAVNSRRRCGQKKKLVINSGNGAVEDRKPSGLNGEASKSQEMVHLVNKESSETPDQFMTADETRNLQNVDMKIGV

Each substance was assayed against T1, RNF128 (human) (UniProt Q8TEB7) (assay: affinity purification with mass spectrometry; Co-IP from lysates of M14-RNF128, A2058-RNF128 and 293T-RNF128 cells with a primary antibody (not named) and protein A/G-Sepharose; immunoprecipitates resolved on 10% gradient gels, Coomassie-stained bands analysed by MS, SEQUEST against the Human International Protein Index database; proteins found in all three cell lines).
T1 sequence: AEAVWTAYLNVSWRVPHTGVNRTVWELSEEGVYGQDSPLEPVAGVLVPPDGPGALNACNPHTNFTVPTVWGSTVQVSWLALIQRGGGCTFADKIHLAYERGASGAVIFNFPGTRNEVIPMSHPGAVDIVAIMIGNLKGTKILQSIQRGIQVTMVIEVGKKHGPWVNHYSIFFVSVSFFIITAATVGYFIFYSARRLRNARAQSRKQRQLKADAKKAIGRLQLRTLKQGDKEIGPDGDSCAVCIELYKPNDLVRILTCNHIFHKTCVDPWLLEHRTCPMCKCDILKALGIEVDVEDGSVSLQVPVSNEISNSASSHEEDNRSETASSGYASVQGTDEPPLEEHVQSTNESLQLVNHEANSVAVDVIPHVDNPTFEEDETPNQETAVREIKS

binding, binds:
Filamin-A (from UniProt P21333 1-2647), Gelsolin (from UniProt P06396 28-782), cortactin (CTTN) (from UniProt Q14247 1-550), CD44 (from UniProt P16070 21-742)
